Assay results as given in publication PMC10341401.
Results are given in words; binding and its absence hold for the method and conditions named. Binding seen in cells or lysates may run through a third protein. Some results given as binding are weak or reduced against the parent protein; the word gives no strength. For part of these data: Sequences can lack the tags named with a protein.

Chains of the proteins cited; added tags and fusions are not shown.
UniProt O94817: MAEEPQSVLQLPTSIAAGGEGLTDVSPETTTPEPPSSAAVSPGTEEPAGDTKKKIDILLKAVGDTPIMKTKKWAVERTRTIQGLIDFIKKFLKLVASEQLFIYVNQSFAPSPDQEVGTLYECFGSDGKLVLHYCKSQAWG

B1: Flag-ARL6IP5 (ADP-ribosylation-like factor 6 interacting protein 5), overexpressed (protein, UniProt O75915 1-188)
chain: MDVNIAPLRAWDDFFPGSDRFARPDFRDISKWNNRVVSNLLYYQTNYLVVAAMMISIVGFLSPFNMILGGIVVVLVFTGFVWAAHNKDVLRRMKKRYPTTFVMVVMLASYFLISMFGGVMVFVFGITFPLLLMFIHASLRLRNLKNKLENKMEGIGLKRTPMGIVLDALEQQEEGINRLTDYISKVKE

What was measured:
[1] = biological target: T1, Flag-ARL6IP5 (ADP-ribosylation-like factor 6 interacting protein 5), overexpressed (UniProt O75915); assay: co-IP; ARL6IP5 immunoprecipitated from lysate of cells overexpressing it for 24 h; 200 ug lysate protein, 2 ug primary antibody overnight at 4 C, protein-A agarose beads, washed with PBS; blots for ATG5 and ATG12
T1 sequence: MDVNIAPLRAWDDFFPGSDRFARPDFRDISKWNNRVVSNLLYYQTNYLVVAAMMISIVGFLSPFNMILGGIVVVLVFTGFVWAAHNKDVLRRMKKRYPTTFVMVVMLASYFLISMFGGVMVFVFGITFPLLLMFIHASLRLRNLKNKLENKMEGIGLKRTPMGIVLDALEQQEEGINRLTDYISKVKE

[2] = biological target: T2, basal ARL6IP5 (human (endogenous in SH-SY5Y)) (UniProt O75915); assay: co-IP; basal ARL6IP5 expression level (no overexpression); cell lysate, protein-A agarose beads
T2 sequence: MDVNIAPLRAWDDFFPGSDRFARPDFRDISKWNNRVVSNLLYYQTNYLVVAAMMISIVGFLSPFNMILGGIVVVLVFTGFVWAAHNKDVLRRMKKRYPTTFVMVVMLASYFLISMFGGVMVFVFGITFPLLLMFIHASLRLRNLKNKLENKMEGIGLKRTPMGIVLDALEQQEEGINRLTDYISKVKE

[3] = biological target: ATG12 (human (endogenous in SH-SY5Y)) (UniProt O94817); assay: co-IP; ATG12 immunoprecipitated from lysate of cells overexpressing Flag-ARL6IP5; flag-ARL6IP5 detected by blot; protein-A agarose beads

| Molecule | binding [1] | binding [2] | binding [3] |
| --- | --- | --- | --- |
| ATG12 (from UniProt O94817 1-140) | binds | binds |  |
| B1 |  |  | binds |
